The name of at least one read-out is uncertain.
test system: RSV-infected BALB/c mice; assay: Alveolar fluid clearance (AFC) in RSV-infected mice at day 2 p.i.; type: in vivo; settings: d2, systemic treatment: leflunomide 35 mg/kg oral gavage daily, uridine 1 g/kg i.p. every 12 h, 6-MP 35 mg/kg i.p. every 24 h
Method: Preparation of viral inocula and infection of mice. […] J. Physiol. Lung Cell Mol. Physiol. […] Data for each experimental group was derived from a minimum of 2 independent infections.
Systemic inhibition of de novo pyrimidine and purine synthesis. Leflunomide (5-methylisoxazole-4-[4-trifluoromethyl]carboxanilide, 35 mg/kg in distilled water containing 1% methylcellulose) was administered once daily by oral gavage in a volume of 300 μl/mouse for 8 days prior to infection, then throughout the infection period. Vehicle controls were gavaged with an equivalent volume of 1% methylcellulose in distilled water.
To systemically block de novo pyrimidine synthesis, mice were gavaged once daily for 8 days with […] of the dihydro-orotate reductase (DHOR) inhibitor leflunomide ([…] suspended in 1% methylcellulose) or vehicle prior to infection, then at 0 and 24 hours p.i. AFC studies were performed at 48 hours p.i., with no additions to the AFC instillate.
AFC studies were performed on anesthetized, ventilated BALB/c mice with normal body temperature and blood gases, over a 30 minute period after intratracheal instillation of 0.3 ml of isosmolar NaCl containing 5% fatty acid-free BSA. The number of mice analyzed per group is listed in the relevant bar of each graph.

Compound | AFC (mean % AFC ± SE)
Sc1ncnc2nc[nH]c12 [6-MP, 6-mercaptopurine] | 16.52 ± 2.51%
O=c1ccn([C@@H]2O[C@H](CO)[C@@H](O)[C@H]2O)c(=O)[nH]1 [Uridine] | 22.89 ± 2.22%
Cc1oncc1C(=O)Nc1ccc(C(F)(F)F)cc1 [Leflunomide, 5-methylisoxazole-4-[4-trifluoromethyl]carboxanilide] | 34.52 ± 2.1 %

— patent US20070219224A1, “Compositions and Methods Relating to Pyrimidine Synthesis Inhibitors” (UAB RESEARCH FOUNDATION, THE, priority 2004, published 2007)
